# Test results published in PubChem BioAssay AID624291 (National Center for Advancing Translational Sciences (NCATS), 2012).
# Among all 350,000 compounds or so, about 220 (0.063%) were called active. Inconclusive means that the source gave no clear call. Such entries were picked first, then a sample of the others. Calls follow the shape of the dose curve; as a rule, active = well fitted activation curve with a large enough effect; inconclusive = small, poorly fitted or top-dose-only effect; inactive = no such curve, though single readings can be large or run the other way. Potencies beside an inconclusive call are fits to weak or partial responses and may not hold up.
# Assay: qHTS for Activators of Integrin-Mediated Alleviation for Muscular Dystrophy; also: nearly all actives have a fitted effect of over 60% in size;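 as to activation: 100% = response of the positive control SU9516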
# Settings: alpha7betagal myoblasts, beta-gal FDG fluorescence, 48 h; activation: at 38.3 µM (top of the series)
# Outline: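 Alpha7betagal+/- myoblasts (passage 13) were plated 16-24 hr, then exposed to compounds (1:260 dilution of DMSO stock) for 48 hours at 37C. After MPER lysis, β-galactosidase reporter activity was read as FDG fluorescence (ex 480/em 540) after 30 minutes.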
# Potency is read from the fitted curve at half-maximal effect.
SMILES,Potency,activation
CCCNC(=S)N1CCC(NC(=O)c2ccc(OC)cc2)CC1,"inconclusive: 3.16 µM [activator, full curve]",–
C/C(=N\NC(=O)c1cc(Br)ccc1O)c1cccc(NC(=O)c2ccccc2F)c1,"inconclusive: 15.8 µM [activator, partial curve, poor fit]",–
C=CCn1cc(Cl)c(=O)n(CC=C)c1=O,"inconclusive: 15.8 µM [activator, single point]",–
O=C(O)Cn1c2ccccc2c2n[nH]c(=S)nc21,"inconclusive: 15.8 µM [activator, single point]",–
CN(C)C(=O)CN1C(=O)NC(c2ccccc2)(c2ccccc2)C1=O,"inconclusive: 5.01 µM [activator, single point]",–
Cn1cccc1C(=O)c1cccc([N+](=O)[O-])c1,"inconclusive: 2.82 µM [activator, single point]",–
CCCCN(C(=O)C1CC(=O)N(Cc2ccc(C)cc2)C1)c1c(N)n(CC(C)C)c(=O)[nH]c1=O (centres undefined),"inconclusive: 7.08 µM [activator, partial curve, poor fit]",–
CC1CC(=O)N(CC(=O)NC2CCCCC2)c2ccccc2S1 (centres undefined),inactive,–
Cc1ccccc1NCC(=O)N/N=C\C=C\c1cccc([N+](=O)[O-])c1,"inconclusive: 1.26 µM [activator, partial curve, poor fit]",–
COc1ccc(C(C#N)=C2C=CC(=NO)C=C2)cc1,–,inconclusive: -67.2% [activator]
O=[N+]([O-])c1ccc(N2CCCC2)nc1N1CCCC1,"inconclusive: 2.82 µM [activator, single point]",–
O=C(NNC(=O)c1ccccc1F)c1cccs1,"inconclusive: 22.4 µM [activator, single point]",–
O=C(Oc1ccccc1N1C(=O)C2CCCCC2C1=O)c1ccc(Cl)cc1 (centres undefined),"inconclusive: 3.55 µM [activator, partial curve, poor fit]",–
CCn1c(=O)cc(N2CCN(C(=O)c3ccco3)CC2)[nH]c1=O,"inconclusive: 3.55 µM [activator, partial curve, poor fit]",–
CCc1ccccc1NC(=O)Nc1cc(F)ccc1F,"inconclusive: 22.4 µM [activator, single point]",–
CC(C(=O)NCC1CCCO1)c1ccc([N+](=O)[O-])cc1 (centres undefined),"inconclusive: 0.891 µM [activator, full curve, poor fit]",–
COCCNC(=O)C(c1ccc(OC)cc1)N(CCOC)C(=O)CCC(=O)Nc1nccs1 (centres undefined),"inconclusive: 2 µM [activator, full curve, poor fit]",–
O=C(Nc1c2c(nn1-c1ccc(F)cc1)CS(=O)C2)c1ccco1 (centres undefined),"inconclusive: 4.47 µM [activator, single point]",–
CCCOc1ncnc2c1sc1nc3c(cc12)COC(C)(C)C3,"inconclusive: 3.16 µM [activator, single point]",–
CC1CCCN(c2nc(N(C)c3ccccc3)nc(N)c2[N+](=O)[O-])C1 (centres undefined),inactive,–
CN1C(=O)/C(=C\c2ccncc2)SC1=Nc1ccccc1,inactive,–
COc1ccccc1Nc1nc2ccccc2n2cnnc12,"inconclusive: 5.01 µM [activator, single point]",–
CC1SCC(=O)N(CC(=O)Nc2ccc3c(c2)OCCO3)C1=O (centres undefined),"inconclusive: 10 µM [activator, partial curve, poor fit]",–

SMILES,Potency,activation
COc1cccc(CC(=O)OCC(=O)NNC(=O)c2ccc(Br)cc2)c1,"inconclusive: 3.16 µM [activator, single point]",–
COc1cc(NC(=O)c2cc(OC)c(OC)c(OC)c2)c2ncccc2c1,inactive,–
COc1cc(/C=C/C(=O)OCC(=O)N2c3ccccc3NC(=O)C2(C)C)cc(OC)c1OC,"inconclusive: 3.55 µM [activator, single point]",–
Cc1cccn2c(NC(=O)c3ccccc3F)c(-c3ccccc3)nc12,"inconclusive: 2.24 µM [activator, full curve, poor fit]",–
CC(C)n1nc(C(=O)OCC(=O)c2c[nH]c3ccccc23)c2ccccc2c1=O,inactive,–
c1ccc(-c2ccccc2OCCCN2CCCCC2)cc1,inactive,–
CCN(CC)c1cc2nonc2c2nonc12,"inconclusive: 28.2 µM [activator, single point]",–
CNc1nc2c(C)cccn2c(=O)c1C=NCc1ccccc1,"inconclusive: 5.01 µM [activator, single point]",–
CC(=O)NNC(=O)CCC(=O)Nc1ccccc1,"inconclusive: 7.08 µM [activator, partial curve]",–
CCN1CCN(CCCNC(=O)c2ccc3c(c2)N(Cc2ccc(C)cc2)CCS3)CC1,"inconclusive: 4.47 µM [activator, single point]",–
CCN(CC)S(=O)(=O)c1ccc2oc(C(=O)NC3CCCc4ccccc43)c(C)c2c1 (centres undefined),"inconclusive: 14.1 µM [activator, partial curve, poor fit]",–
COC(=O)[C@@H]1Cc2c([nH]c3ccccc23)C(C)(C)N1C(=O)CCl,inactive,–
COCCn1c(=NC(=O)c2ccco2)sc2cc(C(=O)OC)ccc21,inactive,–
O=C(CN1CCN(c2cccc(Cl)c2)CC1)Nc1nccs1,"inconclusive: 3.55 µM [activator, full curve, poor fit]",–
CCCc1nnc(NC(=O)CCC(=O)N2CCC(Cc3ccccc3)CC2)s1,"inconclusive: 28.2 µM [activator, single point]",–
CCC(=O)N1CCc2nc(-c3ccccc3)sc2C1,"inconclusive: 12.6 µM [activator, single point]",–
CO/N=C/C(C#N)=C/c1ccc(OC)cc1,"inconclusive: 5.01 µM [activator, single point]",–
CN(c1c(C#N)c(C(F)(F)F)nn1C)N(S(C)(=O)=O)S(C)(=O)=O,–,inconclusive: -10.5% [activator]
COc1ccccc1C(=O)N(NC(=O)Oc1ccccc1)C(C)(C)C,"inconclusive: 1.26 µM [activator, partial curve, poor fit]",–
CC(=O)c1ccc(S(=O)(=O)Nc2cccc(S(=O)(=O)NC3=NCCC3)c2)cc1,"inconclusive: 5.01 µM [activator, single point]",–
CC(=O)N/N=C/c1ccc(OCCOc2ccc(Br)cc2)cc1,inactive,–
O=C(CN1C(=O)C2CC=CCC2C1=O)N1CCN(S(=O)(=O)c2ccccc2)CC1 (centres undefined),"inconclusive: 4.47 µM [activator, single point]",–
Cc1ccc2c(c1)[C@@H]1CN(C)CC[C@@H]1N2S(=O)(=O)c1ccc([N+](=O)[O-])cc1,inactive,–

# Copied from the list.
# Value of CC(=O)c1ccc(S(=O)(=O)Nc2cccc(S(=O)(=O)NC3=NCCC3)c2)cc1 under Potency: inconclusive: 5.01 µM [activator, single point]
# Value of CCN(CC)S(=O)(=O)c1ccc2oc(C(=O)NC3CCCc4ccccc43)c(C)c2c1 (centres undefined) under Potency: inconclusive: 14.1 µM [activator, partial curve, poor fit]

# Entries listed so far that contain two or more sulfur atoms (two):
SMILES,Potency,activation
CN(c1c(C#N)c(C(F)(F)F)nn1C)N(S(C)(=O)=O)S(C)(=O)=O,–,inconclusive: -10.5% [activator]
CC(=O)c1ccc(S(=O)(=O)Nc2cccc(S(=O)(=O)NC3=NCCC3)c2)cc1,"inconclusive: 5.01 µM [activator, single point]",–

# Next part:

SMILES,Potency,activation
COc1ccc(NC(=S)N(CCCN2CCCCC2)Cc2cccs2)cc1,"inconclusive: 22.4 µM [activator, single point]",–
N#CCCn1nnc2ccccc21,inactive,–
COc1ccc(NC(=S)NC2CCCC2)c(OC)c1,inactive,–
COc1cc(Cl)c(C)cc1NC(=O)c1ccccc1NC(=O)CN1CCOCC1,"inconclusive: 2.82 µM [activator, single point]",–
CCOC(=O)c1cnn(-c2ncnc3c2oc2ccccc23)c1N,inactive,–
COC(=O)c1sc(NC(=O)CSc2nnnn2-c2cccc(OC)c2)nc1C,"inconclusive: 5.01 µM [activator, single point]",–
Cc1cccc(NC(=S)NNC(=O)c2csc3c2CCC(C)C3)c1 (centres undefined),inactive,–
O=c1[nH]c2ccc(NS(=O)(=O)c3ccc(F)c(Cl)c3)cc2[nH]1,"inconclusive: 14.1 µM [activator, single point]",–
O=C(c1cc(Cl)ccc1Cl)N1CCN(Cc2ccccc2)CC1,"inconclusive: 2.82 µM [activator, partial curve, poor fit]",–
Cc1cccc(N=C2NN=C(c3ccc4c(c3)OCCO4)CS2)c1,inactive,–
COc1cccc(N(C(=O)c2snc(C(N)=O)c2N)C(C(=O)NCc2ccccc2)c2ccc(O)cc2)c1 (centres undefined),"inconclusive: 5.01 µM [activator, single point]",–
CCCCN(C(=O)c1cc(S(=O)(=O)N2CCCCCC2)ccc1OC)c1c(N)n(CCC)c(=O)[nH]c1=O,inactive,–
Cc1ccc(N2CSC3=C(C#N)C(c4cccs4)CC(=O)N3C2)cc1 (centres undefined),inactive,–
O=C(Nc1ccc(-c2nnc3n2CCCCC3)cc1)c1ccco1,"inconclusive: 2.82 µM [activator, single point]",–
Cc1sc2nc(CSc3ccccc3)nc(NCCN(C)C)c2c1C,inactive,–
O=Cc1ccc2ccc3cccnc3c2n1,inactive,–
CNC(=S)N1CCN(CCNC2=CC(=O)CC(C)(C)C2)CC1,"inconclusive: 3.55 µM [activator, single point]",–
COc1cc2cc(C(=O)N(C)Cc3ccccc3)[nH]c2cc1OC,"inconclusive: 1.58 µM [activator, single point]",–
COC(=O)c1ccc(NC(=O)CN(Cc2ccc(Cl)cc2)S(C)(=O)=O)cc1,"inconclusive: 28.2 µM [activator, single point]",–
O=S(=O)(Nc1ccc(S(=O)(=O)N2CCCCC2)cc1)c1ccc(Br)s1,"inconclusive: 28.2 µM [activator, single point]",–
Cc1c(C(=O)N2CCCCC2)c(S(=O)(=O)NCc2ccccc2Cl)c(C)n1C,"inconclusive: 5.01 µM [activator, single point]",–
O=C(c1ccc(N2CCOCC2)c([N+](=O)[O-])c1)N1CCN(c2ccccc2)CC1,"inconclusive: 5.01 µM [activator, single point]",–
CC(=O)CCc1oc2c([N+](=O)[O-])cccc2c1-c1ccc(C)o1,"inconclusive: 28.2 µM [activator, single point]",–
